In the supplement of paper PMC12823440, “Inhibitors supercharge kinase turnover through native proteolytic circuits” (Nature, 2025):
The list shows a part of the results. Hit calls seldom repeat between salt and free forms of one compound.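 In K562 cells expressing nanoluciferase-fused kinases, luminescence was recorded at 4 h intervals between 2 and 18 h, normalized as percent of control with DMSO at 100% and a positive control at 0%. A significant (2 sigma) signal drop marks a time point as decreased. The authors' rule for a hit is not shown and takes in more than the number of time points.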

Amino acid sequences for entries named in this document (tags omitted).
UniProt Q9UQM7, whole entry: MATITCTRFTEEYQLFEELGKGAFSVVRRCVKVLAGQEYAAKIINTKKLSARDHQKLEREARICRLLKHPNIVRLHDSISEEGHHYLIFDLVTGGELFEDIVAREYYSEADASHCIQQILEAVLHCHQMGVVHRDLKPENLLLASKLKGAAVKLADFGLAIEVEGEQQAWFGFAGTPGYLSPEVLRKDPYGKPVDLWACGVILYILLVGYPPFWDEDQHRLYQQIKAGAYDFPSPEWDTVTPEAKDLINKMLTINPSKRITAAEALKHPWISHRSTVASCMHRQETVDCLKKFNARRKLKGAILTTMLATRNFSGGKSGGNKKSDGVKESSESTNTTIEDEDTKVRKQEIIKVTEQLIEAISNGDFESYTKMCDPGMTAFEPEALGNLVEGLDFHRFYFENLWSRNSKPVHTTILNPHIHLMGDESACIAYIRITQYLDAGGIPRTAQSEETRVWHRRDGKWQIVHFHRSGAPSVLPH

molecular target: CAMK2A (UniProt Q9UQM7); test: number of time points (of 5) at which kinase-Nluc abundance scored as decreased, DMSO-normalised (count); higher = more persistent destabilization; settings: K562; 2-18 h

Structure (SMILES) | number of time points
O=C1NC(=O)C(c2cn(-c3ccccc3)nc2-c2ccc(F)cc2)N1 (stereo unspecified) (10 µM) | 0
O=[N+]([O-])c1ccc(Sc2cccc[n+]2[O-])c2nonc12 (2.5 µM) | 0
COc1nc(-c2ccnc(NC(=O)C3CC3)c2)sc1C(N)=O [GSK-3β inhibitor 2] (10 µM) | 0
CCN1/C(=C/C(C)=O)Sc2ccc(OC)cc21 (10 µM) | 0
Nc1cccc(S(=O)(=O)N2CCCN(S(=O)(=O)c3ccc4c(c3)OCCO4)CC2)c1 (10 µM) | 0
Nc1ncc(-c2ccc(C(=O)N3CCNCC3)cc2)nc1-c1ccc(C(F)(F)F)cc1 (10 µM) | 0
CC[C@H](Nc1ncnc2[nH]cnc12)c1oc2ccccc2c(=O)c1-c1cccc(F)c1 [Tenalisib] (10 µM) | 0
CC(C)(O)[C@@H]1CC[C@](C)([C@H]2[C@@H](O)C[C@@]3(C)[C@@H]4C[C@H](O[C@@H]5O[C@H](CO)[C@@H](O)[C@H](O)[C@H]5O)[C@H]5C(C)(C)[C@@H](O[C@@H]6OC[C@@H](O)[C@H](O)[C@H]6O[C@@H]6O[C@H](CO)[C@@H](O)[C@H](O)[C@H]6O)CC[C@@]56C[C@@]46CC[C@]23C)O1 [Astragaloside VI] (10 µM) | 0
CC(=O)Nc1nc2ccc(-c3cnc(C)c(NC(=O)OC4CCCCC4)c3)cc2s1 (10 µM) | 0
COc1ccccc1/C=C1\C(=O)Nc2ccccc21 (10 µM) | 0
CC1(N)CCN(c2cnc3c(-c4cccc(Cl)c4Cl)[nH]nc3n2)CC1 (2.5 µM) | 0

Part of the list above, set out differently.

| Structure (SMILES) | number of time points |
| --- | --- |
| O=[N+]([O-])c1ccc(Sc2cccc[n+]2[O-])c2nonc12 (2.5 µM) | 0 |
| CCN1/C(=C/C(C)=O)Sc2ccc(OC)cc21 (10 µM) | 0 |
| CC(=O)Nc1nc2ccc(-c3cnc(C)c(NC(=O)OC4CCCCC4)c3)cc2s1 (10 µM) | 0 |
